Laboratory results reported in patent US20250049785A1, “METHODS FOR THE TREATMENT OF GLIOBLASTOMA THAT MINIMIZE RADIATION DAMAGE IN SUSCEPTIBLE PATIENTS” (Rhode Island Hospital, priority 2021, published 2025).
At least one compound was matched to its structure with a doubt left.

How the values were obtained:
GBM = conditions: cited from earlier work
[1] = system: IDH-1 wild-type glioblastoma; experiment: Case presentation: elderly glioblastoma patient treated with involved-field radiotherapy and concomitant daily TMZ; format: in vivo, human; conditions: dexamethasone added after the decline that followed radiation
Text: A right-handed person had developed confusion, word-finding difficulty and slurred speech. These symptoms included making phone calls to their spouse and asking their non-sensible questions. They lost their words intermittently and forgot names of their family members on a number of occasions. They recounted old stories as if they were perseverating and answered questions in the affirmative without actually hearing the question. Their mood also became more irritable. Their past medical history was notable for a skull fracture after fall from horseback riding when they were a teenager. The patient had undergone a neurocognitive evaluation from a memory disorder clinic in a major academic medical center and they had been diagnosed with a non-specific memory disorder.
The patient underwent a gross total resection of the mass 4 days after the MRI. […] Immunohistochemical staining was negative for IDH-1 R132H mutation but positive for ATRX, GFAP, Olig-2 and p53.
The radiation administered consisted of standard external beam radiotherapy. The left temporal postsurgical cavity as well as the ipsilateral putamen and globus pallidus were included in the maximum 6,000 cGy isodose line (see FIG. 2). The brainstem was covered in the 3,000 cGy isodose line while the contralateral putamen and globus pallidus received up to 1,800 cGy of radiation.
They became more forgetful and developed imbalance. […]

| SMILES | survival (GBM; hypo-fractionated radiotherapy and temozolomide over 3 weeks, elderly, randomized prospective phase 3 trial) | benefit from addition of temozolomide to radiotherapy (GBM; post hoc analysis of trial cohorts between the age of 65 and 70, standard Stupp protocol) | neurocognitive improvement of post-radiation decline [1] |
| --- | --- | --- | --- |
| Cn1nnc2c(C(N)=O)ncn2c1=O [TMZ, temozolomide] | improved survival | did not demonstrate a benefit | – |
| C[C@@H]1C[C@H]2[C@@H]3CCC4=CC(=O)C=C[C@]4(C)[C@@]3(F)[C@@H](O)C[C@]2(C)[C@@]1(O)C(=O)CO [dexamethasone] | – | – | did not show neurocognitive improvement |
